According to patent publication US12358941B2, “Lipidic analogs of anti-cancer stem cell agent” (VIRGINIA COMMONWEALTH UNIVERSITY, priority 2019, dated 2025):

System: HT-29 spheroids (CSCs)
Experiment: Primary spheroids inhibition assay, HT-29
Type: cell-based
Conditions: monolayer vs spheroid
Protocol: The inhibitory potential of lipid-modified compounds of Formula I against CSCs was tested using a primary spheroids inhibition assay in various cancer cell lines including HT-29, RKO, HCT-116, LS1034, HC-15, WiDr, SW480, COLO205, NCI-H508, SW1116, LS174T, KM12 etc. Cells were grown both under monolayer and spheroid conditions as described in earlier work [Patel, N. J., et al. ACS Chem. Biol. 2014, 9, 1826-1833]. For primary sphere assay, cells were plated in non-treated, low adhesion, 96 wells plate at the concentration of 100 cells/100 μL/well in stem cell media (SCM) that consisted of DMEM:F12:AA, supplemented with 1×B27, 20 ng/mL epidermal growth factor, and 10 ng/mL fibroblast growth factor. After 4 h of incubation, vehicle (control) or G2.2 and its lipid analogs at the desired concentrations were added to each well (at least in triplicates for each sample). On day five, numbers of spheres ranging from 50 to 150 micrometers in diameter were counted using phase contrast microscope and percent inhibition was calculated compared to control. For monolayer assay, approximately 2.5×10^3 cells/100 μL/well were plated in 96-well tissue culture treated plate. After overnight incubation at 37° C. vehicle (control) or G2.2 was added at the desired concentration and the cells were further incubated for 60-72 h. At the end of the incubation, 10 μL of 5 mg mL^−1 MTT solution ((3-(4,5-dimethylthiazol-2-yl)-2,5-diphenyltetrazolium bromide, Sigma) made in phosphate buffered saline (PBS) (Gibco) was added to each well and incubated for minimum of 2 to 3 h until crystals formation was observed. Following this, 150 μL of 4 mM HCl (Sigma) in isopropanol solution was added dropwise to each well and the mixture was triturated until the crystals dissolve completely. Finally, the plate was placed on the spectrophotometer reader and read at 590 nm and growth inhibition was calculated as percent of control.

SMILES | Selectivity Index
O=c1c(OS(=O)(=O)O)c(-c2ccc(OS(=O)(=O)O)c(OS(=O)(=O)O)c2)oc2cc(OS(=O)(=O)O)cc(OCCCOc3cc(OS(=O)(=O)O)cc4oc(-c5ccc(OS(=O)(=O)O)c(OS(=O)(=O)O)c5)c(OS(=O)(=O)O)c(=O)c34)c12 [Compound G2.2] | >17
CC(C)CCCC(C)C1CCC2C3CC=C4CC(OCCCCCOc5cc(-c6oc7cc(OS(=O)(=O)[O-])cc(OCCCOc8cc(OS(=O)(=O)[O-])cc9oc(-c%10ccc(OS(=O)(=O)[O-])c(OS(=O)(=O)[O-])c%10)c(OS(=O)(=O)[O-])c(=O)c89)c7c(=O)c6OS(=O)(=O)[O-])ccc5OS(=O)(=O)[O-])CCC4(C)C3CCC12C.[Na+].[Na+].[Na+].[Na+].[Na+].[Na+].[Na+] (stereo not drawn) [IIb] | >60
CC(C)CCCC(C)C1CCC2C3CC=C4CC(OCCCCCCCCOc5cc(-c6oc7cc(OS(=O)(=O)[O-])cc(OCCCOc8cc(OS(=O)(=O)[O-])cc9oc(-c%10ccc(OS(=O)(=O)[O-])c(OS(=O)(=O)[O-])c%10)c(OS(=O)(=O)[O-])c(=O)c89)c7c(=O)c6OS(=O)(=O)[O-])ccc5OS(=O)(=O)[O-])CCC4(C)C3CCC12C.[Na+].[Na+].[Na+].[Na+].[Na+].[Na+].[Na+] (stereo not drawn) [IIc] | 1348
